Literature values, collected in patent US11535641B2, “Method for preparing GOS having reduced allergenicity” (FRIESLANDCAMPINA NEDERLAND B.V., priority 2017, dated 2022).
Some entries share one result that the patent states for a list of compounds.

B1: C. terrestris M2 (mutant strain enzyme 1): β-galactosidase with N-terminal 130 residues of wild-type deleted, SEQ ID NO: 2 (protein, listed as Cryptococcus terrestris)
chain: ATTNQDAITPTATGPVGGQGTPAVNFTDYSSSSLEQFWNDWVGEVEEPPFAYVPEPPNPYPLPNAPPPIYPEYYTKRPKDILPDYKFPKDFLFGWATAAQQWEGAVKADGKGPSIWDWASRFPGFIADNTTSDVGDLGYYLYKEDLARIAALGANVYSFSMFWTRIFPFGKADSPVNQAGIDFYHDLIDYSWSLGIEPVVTLFHWDTPLALQLEYGGFASERIIDDYVNYAETVFKAYNGSVHKWVTFNEPVVFCSQMAAPVNTTLPPNLNSTIYPYTCSYHLVLAHAKTVKRFRELNIQGQIAFKSDNFVGIPWREGNQEDIDAVERHQAYQIGIFAEPIYNTGDWPDIVKNDLSPDILPRFTDDEIAMIKCTADFFPIDGYRDGYVQAVPGGVEACVANISNPLWPACNQVNFYDSTPAGWAIGTFGNWPTTPWLQNTWQFVRPFLADLAKRYPTEGGIYLSEFGFSEPFENDKTFIYQITQDSGRTAYFNSYLGEVLKGIVEDGIPIKGVFGWSMVDNFEWNSGLSTRFGVQYVDYNSPTRQRTFKRSALEMSEFWNAHRCSA
B2: C. terrestris M6 (mutant strain enzyme 3): β-galactosidase with N-terminal 141 residues of wild-type deleted, SEQ ID NO: 4 (protein, listed as Cryptococcus terrestris)
chain: ATGPVGGQGTPAVNFTDYSSSSLEQFWNDWVGEVEEPPFAYVPEPPNPYPLPNAPPPIYPEYYTKRPKDILPDYKFPKDFLFGWATAAQQWEGAVKADGKGPSIWDWASRFPGFIADNTTSDVGDLGYYLYKEDLARIAALGANVYSFSMFWTRIFPFGKADSPVNQAGIDFYHDLIDYSWSLGIEPVVTLFHWDTPLALQLEYGGFASERIIDDYVNYAETVFKAYNGSVHKWVTFNEPVVFCSQMAAPVNTTLPPNLNSTIYPYTCSYHLVLAHAKTVKRFRELNIQGQIAFKSDNFVGIPWREGNQEDIDAVERHQAYQIGIFAEPIYNTGDWPDIVKNDLSPDILPRFTDDEIAMIKCTADFFPIDGYRDGYVQAVPGGVEACVANISNPLWPACNQVNFYDSTPAGWAIGTFGNWPTTPWLQNTWQFVRPFLADLAKRYPTEGGIYLSEFGFSEPFENDKTFIYQITQDSGRTAYFNSYLGEVLKGIVEDGIPIKGVFGWSMVDNFEWNSGLSTRFGVQYVDYNSPTRQRTFKRSALEMSEFWNAHRCSA

Conditions: within the stable temperature range, 30 minutes, acetate buffer (pH 6.0)

Molecule	enzyme activity retained
B1	≥ 80%
B2	≥ 80%
